Holding throughout (test): log2 fold change, soluble protein after heating vs DMSO (PISA); higher = thermal stabilisation; K562 lysate, 10 uM; active = over 0.2 and 3.5 SD of the protein, either way, in both replicates (recomputed)
Compound in test [1]: CC1=C2C(=CC=C1)N=C(N(C2=O)C3=CC=CC=C3C)CN4C=NC5=C(N=CN=C54)N
In short, it runs like this:
(§1)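 Thermal stability, expressed as log-two fold change relative to solvent controls, is given from duplicates. Crude K562 extract in PBS pH 7.4 with 1 mM MgCl2, at 1 mg/mL protein, was treated with 10 μM compound for 30 min and heated in aliquots for 3 min across 48°C-58°C. After pooling, adjustment to 0.5% NP-40 at 4°C and centrifugation at 21,000xg for 90 min, supernatant protein was measured by TMTpro 16plex LC-MS/MS with channel sums equalised.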

Chains of the proteins cited; added tags and fusions are not shown. Lines headed by an entry give the natural chain unless they say otherwise; changes in a name come on top.
UniProt Q8TEQ0: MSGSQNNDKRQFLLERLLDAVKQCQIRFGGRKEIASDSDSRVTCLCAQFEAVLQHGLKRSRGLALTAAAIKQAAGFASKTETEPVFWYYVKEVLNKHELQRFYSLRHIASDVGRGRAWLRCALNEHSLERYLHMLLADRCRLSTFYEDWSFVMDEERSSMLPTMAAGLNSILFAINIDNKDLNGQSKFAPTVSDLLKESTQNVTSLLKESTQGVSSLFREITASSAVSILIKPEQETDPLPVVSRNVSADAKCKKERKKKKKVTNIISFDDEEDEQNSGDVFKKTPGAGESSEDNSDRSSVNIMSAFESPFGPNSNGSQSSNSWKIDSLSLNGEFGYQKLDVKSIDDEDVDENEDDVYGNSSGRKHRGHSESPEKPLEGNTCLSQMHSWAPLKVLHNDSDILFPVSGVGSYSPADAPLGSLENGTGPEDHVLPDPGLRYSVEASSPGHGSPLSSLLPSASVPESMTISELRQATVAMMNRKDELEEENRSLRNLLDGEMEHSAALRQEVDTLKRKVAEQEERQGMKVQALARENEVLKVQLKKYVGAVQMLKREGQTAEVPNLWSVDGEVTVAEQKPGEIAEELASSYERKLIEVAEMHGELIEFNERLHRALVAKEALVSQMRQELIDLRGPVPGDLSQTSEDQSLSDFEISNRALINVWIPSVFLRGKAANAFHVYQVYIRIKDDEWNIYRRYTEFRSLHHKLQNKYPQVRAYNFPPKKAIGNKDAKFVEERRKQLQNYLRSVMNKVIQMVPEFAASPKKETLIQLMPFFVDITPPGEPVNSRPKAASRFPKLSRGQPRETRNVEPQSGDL
UniProt Q6STE5, whole entry, looked up: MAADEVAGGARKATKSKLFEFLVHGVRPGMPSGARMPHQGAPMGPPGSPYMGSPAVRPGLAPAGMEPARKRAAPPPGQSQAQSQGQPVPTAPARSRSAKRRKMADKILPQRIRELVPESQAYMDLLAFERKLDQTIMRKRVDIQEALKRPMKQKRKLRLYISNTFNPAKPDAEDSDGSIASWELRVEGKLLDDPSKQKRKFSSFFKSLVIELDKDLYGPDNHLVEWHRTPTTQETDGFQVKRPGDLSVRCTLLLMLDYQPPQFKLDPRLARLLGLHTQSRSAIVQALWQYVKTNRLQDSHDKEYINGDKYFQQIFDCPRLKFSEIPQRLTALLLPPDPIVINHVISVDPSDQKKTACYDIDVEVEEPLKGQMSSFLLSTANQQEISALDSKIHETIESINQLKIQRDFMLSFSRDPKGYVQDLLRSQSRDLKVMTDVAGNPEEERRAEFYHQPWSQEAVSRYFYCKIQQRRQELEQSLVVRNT
UniProt Q92966: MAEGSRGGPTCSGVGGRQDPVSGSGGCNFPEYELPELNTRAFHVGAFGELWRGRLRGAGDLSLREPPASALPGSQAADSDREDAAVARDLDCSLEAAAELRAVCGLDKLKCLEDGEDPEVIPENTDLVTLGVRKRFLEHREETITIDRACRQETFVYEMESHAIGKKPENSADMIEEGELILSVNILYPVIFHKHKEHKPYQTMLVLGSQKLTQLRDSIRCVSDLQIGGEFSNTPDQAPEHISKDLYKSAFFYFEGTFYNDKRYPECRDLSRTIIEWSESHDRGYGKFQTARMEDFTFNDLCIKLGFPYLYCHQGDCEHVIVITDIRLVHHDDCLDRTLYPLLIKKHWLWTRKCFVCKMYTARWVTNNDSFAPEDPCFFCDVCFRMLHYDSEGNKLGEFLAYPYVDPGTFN
UniProt O75971: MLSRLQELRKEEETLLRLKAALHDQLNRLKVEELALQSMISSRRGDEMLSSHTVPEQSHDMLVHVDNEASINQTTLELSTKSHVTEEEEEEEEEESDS
UniProt Q02086: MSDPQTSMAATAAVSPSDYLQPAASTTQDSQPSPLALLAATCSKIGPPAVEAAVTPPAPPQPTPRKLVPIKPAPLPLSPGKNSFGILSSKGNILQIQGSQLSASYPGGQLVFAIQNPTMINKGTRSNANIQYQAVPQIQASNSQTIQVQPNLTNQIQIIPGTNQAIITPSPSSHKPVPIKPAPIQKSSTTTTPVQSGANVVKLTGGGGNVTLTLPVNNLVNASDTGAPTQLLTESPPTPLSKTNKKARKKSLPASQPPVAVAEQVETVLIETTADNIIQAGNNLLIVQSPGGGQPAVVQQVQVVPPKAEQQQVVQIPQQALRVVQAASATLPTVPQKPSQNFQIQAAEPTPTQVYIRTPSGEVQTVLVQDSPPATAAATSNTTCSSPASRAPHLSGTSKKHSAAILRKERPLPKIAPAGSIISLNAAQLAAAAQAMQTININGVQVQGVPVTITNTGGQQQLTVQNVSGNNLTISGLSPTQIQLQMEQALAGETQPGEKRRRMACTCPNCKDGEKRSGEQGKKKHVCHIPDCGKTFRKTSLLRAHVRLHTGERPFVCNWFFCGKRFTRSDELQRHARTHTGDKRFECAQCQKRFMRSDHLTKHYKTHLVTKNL
UniProt Q7Z3B0: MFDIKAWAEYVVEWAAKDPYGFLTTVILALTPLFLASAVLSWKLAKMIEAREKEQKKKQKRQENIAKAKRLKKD
UniProt Q96RF0: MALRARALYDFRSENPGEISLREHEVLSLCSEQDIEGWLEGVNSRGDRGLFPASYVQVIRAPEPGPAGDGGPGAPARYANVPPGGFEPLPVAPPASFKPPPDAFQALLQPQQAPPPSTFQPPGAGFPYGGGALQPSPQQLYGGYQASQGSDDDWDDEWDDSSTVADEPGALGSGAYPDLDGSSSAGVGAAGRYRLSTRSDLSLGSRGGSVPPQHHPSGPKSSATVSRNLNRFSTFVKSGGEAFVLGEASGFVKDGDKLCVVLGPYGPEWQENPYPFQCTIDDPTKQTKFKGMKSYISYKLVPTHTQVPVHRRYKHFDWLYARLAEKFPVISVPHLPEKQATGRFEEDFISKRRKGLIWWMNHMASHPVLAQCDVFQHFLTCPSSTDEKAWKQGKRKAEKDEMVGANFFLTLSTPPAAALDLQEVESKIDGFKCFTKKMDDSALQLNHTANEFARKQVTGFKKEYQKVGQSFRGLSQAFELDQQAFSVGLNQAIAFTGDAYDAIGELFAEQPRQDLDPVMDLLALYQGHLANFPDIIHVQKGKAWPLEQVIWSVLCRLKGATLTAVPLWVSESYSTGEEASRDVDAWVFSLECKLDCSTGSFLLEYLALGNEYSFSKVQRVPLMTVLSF
UniProt Q9Y5W8: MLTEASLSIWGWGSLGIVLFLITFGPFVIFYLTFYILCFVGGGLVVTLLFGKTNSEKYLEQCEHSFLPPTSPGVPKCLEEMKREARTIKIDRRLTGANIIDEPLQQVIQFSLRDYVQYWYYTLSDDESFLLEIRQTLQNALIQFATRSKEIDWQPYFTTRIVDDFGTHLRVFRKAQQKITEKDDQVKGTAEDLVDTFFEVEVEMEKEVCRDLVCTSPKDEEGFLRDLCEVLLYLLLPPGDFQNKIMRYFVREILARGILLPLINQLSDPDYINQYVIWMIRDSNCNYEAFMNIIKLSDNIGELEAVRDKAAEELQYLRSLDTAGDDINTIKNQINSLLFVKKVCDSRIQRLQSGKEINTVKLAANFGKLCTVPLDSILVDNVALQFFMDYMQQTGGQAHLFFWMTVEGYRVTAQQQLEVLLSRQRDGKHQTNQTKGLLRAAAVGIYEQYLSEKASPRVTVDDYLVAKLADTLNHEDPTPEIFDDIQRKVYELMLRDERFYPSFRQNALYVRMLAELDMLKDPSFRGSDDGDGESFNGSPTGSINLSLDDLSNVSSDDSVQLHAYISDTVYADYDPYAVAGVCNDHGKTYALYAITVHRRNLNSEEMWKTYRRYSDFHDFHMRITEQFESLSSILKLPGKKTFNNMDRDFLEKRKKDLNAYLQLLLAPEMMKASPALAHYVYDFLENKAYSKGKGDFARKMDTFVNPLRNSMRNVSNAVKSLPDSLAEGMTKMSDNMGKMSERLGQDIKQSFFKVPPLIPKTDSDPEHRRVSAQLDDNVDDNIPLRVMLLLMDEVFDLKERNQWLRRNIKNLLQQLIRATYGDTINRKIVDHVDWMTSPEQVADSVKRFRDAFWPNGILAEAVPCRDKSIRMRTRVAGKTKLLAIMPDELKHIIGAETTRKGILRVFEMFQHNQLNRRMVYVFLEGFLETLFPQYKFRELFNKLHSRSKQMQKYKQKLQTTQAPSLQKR
UniProt O60906: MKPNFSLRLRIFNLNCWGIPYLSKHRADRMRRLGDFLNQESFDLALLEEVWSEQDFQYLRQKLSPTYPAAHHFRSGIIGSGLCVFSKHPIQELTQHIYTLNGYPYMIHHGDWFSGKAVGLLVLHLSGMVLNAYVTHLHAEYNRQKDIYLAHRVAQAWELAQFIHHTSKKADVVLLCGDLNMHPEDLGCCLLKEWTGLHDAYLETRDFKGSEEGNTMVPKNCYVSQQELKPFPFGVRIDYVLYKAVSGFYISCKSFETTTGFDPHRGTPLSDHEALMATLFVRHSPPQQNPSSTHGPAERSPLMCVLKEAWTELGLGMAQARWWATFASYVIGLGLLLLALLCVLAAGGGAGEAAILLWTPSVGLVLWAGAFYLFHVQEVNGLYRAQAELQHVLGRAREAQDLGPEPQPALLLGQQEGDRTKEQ
UniProt Q16560: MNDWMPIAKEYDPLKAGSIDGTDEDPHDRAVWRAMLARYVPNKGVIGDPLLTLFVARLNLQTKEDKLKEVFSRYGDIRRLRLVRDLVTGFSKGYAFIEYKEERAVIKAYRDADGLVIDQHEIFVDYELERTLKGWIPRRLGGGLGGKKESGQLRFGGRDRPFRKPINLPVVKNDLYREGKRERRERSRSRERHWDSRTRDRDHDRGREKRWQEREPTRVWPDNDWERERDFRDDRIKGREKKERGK
UniProt O00161: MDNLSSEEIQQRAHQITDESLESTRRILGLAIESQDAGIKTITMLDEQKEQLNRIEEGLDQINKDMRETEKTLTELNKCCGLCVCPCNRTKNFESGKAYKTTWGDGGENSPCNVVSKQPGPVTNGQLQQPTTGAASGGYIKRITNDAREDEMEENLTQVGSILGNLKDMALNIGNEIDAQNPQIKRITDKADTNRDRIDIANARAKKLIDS
UniProt Q13487, whole entry, looked up: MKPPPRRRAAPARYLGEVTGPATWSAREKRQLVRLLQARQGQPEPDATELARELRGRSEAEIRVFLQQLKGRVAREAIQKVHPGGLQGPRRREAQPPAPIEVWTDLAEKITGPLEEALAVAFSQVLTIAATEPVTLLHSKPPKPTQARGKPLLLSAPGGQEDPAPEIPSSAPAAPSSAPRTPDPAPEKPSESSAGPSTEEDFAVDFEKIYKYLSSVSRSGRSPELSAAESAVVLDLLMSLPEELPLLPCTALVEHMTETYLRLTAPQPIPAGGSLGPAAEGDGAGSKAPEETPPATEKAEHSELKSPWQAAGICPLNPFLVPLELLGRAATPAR
UniProt Q9Y5X0: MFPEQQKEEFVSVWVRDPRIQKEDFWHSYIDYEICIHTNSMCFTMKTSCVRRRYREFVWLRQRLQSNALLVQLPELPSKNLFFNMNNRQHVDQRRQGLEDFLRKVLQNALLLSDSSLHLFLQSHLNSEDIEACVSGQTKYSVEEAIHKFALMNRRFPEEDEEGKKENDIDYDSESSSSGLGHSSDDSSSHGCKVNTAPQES
UniProt Q6X4U4: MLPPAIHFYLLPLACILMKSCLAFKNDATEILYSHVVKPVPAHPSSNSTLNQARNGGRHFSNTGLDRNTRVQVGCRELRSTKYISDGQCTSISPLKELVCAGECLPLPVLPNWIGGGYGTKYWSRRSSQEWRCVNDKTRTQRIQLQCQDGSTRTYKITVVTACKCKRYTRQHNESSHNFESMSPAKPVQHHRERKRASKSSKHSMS
UniProt Q9NX45: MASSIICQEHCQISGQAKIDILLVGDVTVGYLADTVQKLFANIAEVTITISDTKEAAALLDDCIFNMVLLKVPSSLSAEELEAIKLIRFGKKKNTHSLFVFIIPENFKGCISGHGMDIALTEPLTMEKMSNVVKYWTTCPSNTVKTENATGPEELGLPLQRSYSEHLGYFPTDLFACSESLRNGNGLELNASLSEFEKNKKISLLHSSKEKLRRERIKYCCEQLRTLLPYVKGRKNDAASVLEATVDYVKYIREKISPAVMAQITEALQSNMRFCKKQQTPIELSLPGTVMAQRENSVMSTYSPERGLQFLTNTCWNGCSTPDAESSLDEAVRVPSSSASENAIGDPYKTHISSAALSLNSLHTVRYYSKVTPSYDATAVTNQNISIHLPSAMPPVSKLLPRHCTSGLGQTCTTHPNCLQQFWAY
UniProt P02814: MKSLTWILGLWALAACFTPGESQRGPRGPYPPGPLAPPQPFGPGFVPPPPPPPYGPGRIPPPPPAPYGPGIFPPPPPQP
UniProt Q3SY56: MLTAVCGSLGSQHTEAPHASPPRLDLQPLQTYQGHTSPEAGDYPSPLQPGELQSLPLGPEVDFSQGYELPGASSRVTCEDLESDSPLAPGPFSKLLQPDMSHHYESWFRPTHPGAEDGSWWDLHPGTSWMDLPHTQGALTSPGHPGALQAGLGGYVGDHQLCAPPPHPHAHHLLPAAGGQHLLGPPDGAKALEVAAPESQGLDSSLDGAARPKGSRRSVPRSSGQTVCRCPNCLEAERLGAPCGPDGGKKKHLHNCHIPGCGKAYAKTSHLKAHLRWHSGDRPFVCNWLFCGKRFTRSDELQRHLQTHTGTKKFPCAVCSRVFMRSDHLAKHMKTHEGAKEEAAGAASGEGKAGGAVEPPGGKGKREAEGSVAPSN

Compound in test [2]: c1ccc([C@@H]2C[C@H]2NC2CCNCC2)cc1
In short, it runs like this:
as §1

Compound in test [3]: C1=CC=C(C=C1)[C@H](COC2=CC3=C(C=C2)NC(=O)N3)NC(=O)C4=CC=CN(C4=O)CC5=CC(=C(C=C5)F)F
The method in brief: as §1

Compound in test [4]: CC1=C(SC2=C1C(=N[C@H](C3=NN=C(N32)C)CC(=O)N)C4=CC=C(C=C4)Cl)C
In short, it runs like this:
as §1

Compound in test [5]: Cc1sc2c(c1C)C(c1ccc(Cl)cc1)=N[C@@H](CC(=O)OC(C)(C)C)c1nnc(C)n1-2
In short, it runs like this:
as §1

Some of the results follow.

For the target SNRPN isoform 2 (UniProt P63162), the values for the log2 fold change in test [1] and in test [2] were inactive: 0.076 and inactive: -0.201, respectively.
As to SOX11 (UniProt P35716), in test [1], the log2 fold change is inactive: -0.077.
With SNX29 (UniProt Q8TEQ0), in test [2], the log2 fold change is inactive: 0.
Regarding SNX30 (UniProt Q5VWJ9), the log2 fold change in test [3] was inactive: -0.019; in test [4], inactive: 0.06; in test [5] it was inactive: 0.086; in test [2], inactive: -0.011.
Consider SMARCD3 (UniProt Q6STE5), for which, in test [5], the log2 fold change was inactive: 0.146.
For SNAPC3 (UniProt Q92966), the log2 fold change in test [3] was inactive: 0.118; in test [4], inactive: -0.312; in test [5], inactive: -0.076; in test [2], inactive: 0.05.
In the case of SMIM1 (UniProt B2RUZ4), the log2 fold change in test [3] is inactive: 0.053; in test [4], inactive: -0.054; in test [2], inactive: -0.028.
For SPANXB1 (UniProt Q9NS25), the log2 fold change in test [2] is inactive: -0.154.
Turning to SMDT1 (UniProt Q9H4I9), the log2 fold change in test [3] is inactive: -0.145; in test [4] it was inactive: 0.131; in test [5], inactive: 0.067; in test [2] it was inactive: -0.094.
Turning to SNAPC5 (UniProt O75971), the log2 fold change in test [1] is inactive: -0.036; in test [2] it was inactive: 0.129.
With SP2 (UniProt Q02086), the log2 fold change in test [3] was inactive: -0.176; in test [4] it was inactive: 0.019; in test [5], inactive: -0.135.
SMYD4 (UniProt Q8IYR2): the results for the log2 fold change in test [5] and in test [2] were inactive: 0.029 and inactive: 0.153, respectively.
For the target SMIM15 (UniProt Q7Z3B0), the log2 fold change in test [1] was inactive: 0.008; in test [5], inactive: -0.23; in test [2] it was inactive: -0.029.
With SMARCC2 isoform 3 (UniProt Q8TAQ2), the figures for the log2 fold change in test [3], in test [4] and in test [5] were inactive: 0.074, inactive: -0.122 and inactive: -0.001, respectively.
SNX18 isoform 2 (UniProt Q96RF0): the values for the log2 fold change in test [1] and in test [2] were inactive: 0.082 and inactive: 0.152, respectively.
As to SNX19 (UniProt Q92543), the log2 fold change in test [5] was inactive: 0.061; in test [2], inactive: -0.013.
Take SNX25 (UniProt Q9H3E2): in test [5], the log2 fold change was inactive: -0.05.
Regarding SNX13 (UniProt Q9Y5W8), the log2 fold change is inactive: 0.079 in test [3], inactive: -0.102 in test [4] and inactive: 0.034 in test [5].
Turning to SMPDL3A (UniProt Q92484), in test [1], the log2 fold change is inactive: -0.146.
Turning to SMIM26, A0A096LP01, the log2 fold change in test [2] is inactive: 0.316.
Turning to SMPD2 (UniProt O60906), the log2 fold change is inactive: -0.244 in test [5] and inactive: -0.05 in test [2].
For SNRNP35 isoform 2 (UniProt Q16560) the same measures were inactive: 0.022 and inactive: 0.307.
Turning to SMPD1 (UniProt P17405), the log2 fold change was inactive: 0.016 in test [3], inactive: 0.038 in test [4] and inactive: -0.012 in test [5].
For SNX24 (UniProt Q9Y343), the log2 fold change in test [3] was inactive: 0.016; in test [4], inactive: 0.003; in test [5], inactive: 0.047; in test [2], inactive: 0.031.
SMOX isoform 6 (UniProt Q9NWM0): the log2 fold change in test [5] is inactive: 0.015.
With SMIM10L1 (UniProt P0DMW3), the log2 fold change in test [2] was inactive: -0.018.
As for SNAP23 isoform 2 (UniProt O00161), the values for the log2 fold change in test [1] and in test [2] were inactive: 0.045 and inactive: -0.038, respectively.
In the case of SNAPC2 (UniProt Q13487), the log2 fold change is inactive: 0.107 in test [3], inactive: 0.302 in test [4], inactive: 0.101 in test [5] and inactive: 0.004 in test [2].
For SMIM11A (UniProt P58511), in test [1], the log2 fold change is inactive: 0.166.
On to SNX10 (UniProt Q9Y5X0), for which, in test [5], the log2 fold change was inactive: 0.187.
Turning to SMPDL3B (UniProt Q92485), the log2 fold change in test [1] is inactive: 0.052; in test [5] it was inactive: -0.02; in test [2] it was inactive: -0.059.
Consider SMARCA4 isoform 4 (UniProt P51532), for which the log2 fold change in test [5] is inactive: -0.007; in test [2], inactive: 0.131.
SOSTDC1 isoform 2 (UniProt Q6X4U4): in test [5], the log2 fold change was inactive: 0.068.
Take SOHLH2 isoform 3 (UniProt Q9NX45): the log2 fold change was inactive: 0.019 in test [3], inactive: -0.058 in test [4], inactive: -0.03 in test [5] and inactive: -0.007 in test [2].
On to SMR3B (UniProt P02814), for which the log2 fold change in test [2] is inactive: 0.085.
SP3 (UniProt Q02447): the log2 fold change in test [3] is inactive: 0.075; in test [4] it was inactive: -0.068; in test [5], inactive: 0.001; in test [2], inactive: 0.049.
With SP6 (UniProt Q3SY56), the log2 fold change in test [1] was inactive: 0.013; in test [5], inactive: -0.108; in test [2] it was inactive: -0.005.

(Values after the supplement of paper PMC10849652.)
